Laboratory results taken from patent US20100048713A1, “COMPOUNDS ACTING ON THE SEROTONIN TRANSPORTER” (Aarhus Universitet, priority 2006, published 2010).

Chains of the proteins cited; added tags and fusions are not shown.
UniProt P31645, whole entry: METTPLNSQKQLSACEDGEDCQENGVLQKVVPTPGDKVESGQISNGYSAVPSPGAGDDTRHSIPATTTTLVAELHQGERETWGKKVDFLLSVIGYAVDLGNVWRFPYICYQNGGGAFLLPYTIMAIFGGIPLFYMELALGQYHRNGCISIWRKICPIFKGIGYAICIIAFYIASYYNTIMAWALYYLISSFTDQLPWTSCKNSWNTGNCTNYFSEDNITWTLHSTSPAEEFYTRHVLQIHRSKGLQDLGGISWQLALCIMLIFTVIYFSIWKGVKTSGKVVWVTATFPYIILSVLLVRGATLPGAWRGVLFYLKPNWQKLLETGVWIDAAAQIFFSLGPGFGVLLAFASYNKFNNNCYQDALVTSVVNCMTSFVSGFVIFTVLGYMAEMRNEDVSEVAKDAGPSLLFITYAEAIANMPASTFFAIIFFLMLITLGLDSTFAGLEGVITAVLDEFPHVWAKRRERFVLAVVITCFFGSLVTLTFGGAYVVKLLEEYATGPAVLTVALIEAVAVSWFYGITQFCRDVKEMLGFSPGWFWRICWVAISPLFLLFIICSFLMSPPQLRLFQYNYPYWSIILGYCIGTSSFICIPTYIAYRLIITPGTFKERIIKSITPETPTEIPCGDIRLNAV

Tests used:
hSERT [1] = biological target: T1, hSERT (Homo sapiens, UniProt P31645); assay: Binding assay on whole cells transfected with hSERT ([3H]-citalopram displacement); conditions: whole cell assay, 35 nM [3H]-citalopram, 60 min room temperature; table title: 45 min preincubation
T1 construct: expressed in transfected cells; the general 96-well protocol names Cos-1
Description: The pcDNA3 plasmid vector containing the hSERT gene was used for transfection (see FIG. 6).
(§1) The 96-well plate was washed with PBSCM to remove DMEM prior to the assay. […] The plate was subsequently incubated for 60 min at room temperature. The assay was terminated by washing once with PBSCM. The amount of accumulated [^3H]-citalopram was determined by solubilizing cells in scintillant (MicroScint 20) with direct counting of plates in a Packard TopCounter. Data was analyzed by GraphPad software.

hSERT [2] = biological target: T1, hSERT; assay: 5-HT uptake assay with preincubation (whole cells); type: cell-based
Description: 7 μl Fugene-6 was mixed with 112 μl Dulbecco's modified Eagle's medium, and incubated at room temperature for 5 minutes. 4 μg of plasmid were added and the mixture was further incubated at least 15 minutes. Cos-1 cells were trypsinized and suspended in growth media, and the plasmid/Fugene-6 mixture was added followed by dispersion into a 96-well plate.
as §1, with “assay. 50 μl PBSCM containing increasing concentrations of allosteric ligand were added to each well, and incubated for 60 min at room temperature under moderate agitation.” for “assay.”, “10” for “60”, “[^3H]-5-HT” for “[^3H]-citalopram”
We tested the allosteric ligands for their ability to inhibit/activate 5-HT-uptake in the whole-cell assay after 60 minutes preincubation.

## O=C(O)c1cccc2cccc([N+](=O)[O-])c12 [TS24]
hSERT [1]
  EC50: > 2000 µM
hSERT [2]; hSERT expressing cells, 60 minutes incubation at room temperature
  effect on [3H]-5-HT uptake after preincubation (FIG. 4): inhibits [^3H]-5-HT uptake
hSERT [2]; whole cell assay with preincubation (title 45 min, text 60 min), 75 nM [3H]-5-HT, 10 min
  IC50: 97.7 µM
